## Results from one PubChem assay

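A panel of P. falciparum strains inside erythrocytes is exposed to compounds for three days, then a DNA-binding dye reports the amount of parasite DNA. Each compound was titrated across a series from about 0.000037 to 29 µM. The number is the fitted AC50, the concentration giving a half-maximal change in signal; a lower value means higher potency, whether the curve shows a decrease or an increase. Calls follow the curve class and fit quality: every row here is inconclusive, covering signal-raising curves and weak, poorly fitted, partial or highest-dose-only inhibition curves.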

Values are in µM. All entries here are filed as inconclusive. These entries are mostly ones the record files as inconclusive; other results of the assay are not listed here. A potency from a partial, single-point or poor curve is only a rough figure. Some entries filed as inconclusive have a full curve.

Compound	condition	potency (µM)	remark
CCn1cc(C(=O)O)c(=O)c2cc(F)c(N3CCN(C)CC3)cc21	ICS	3.981	inhibitor, full curve, poor fit
CCn1cc(C(=O)O)c(=O)c2cc(F)c(N3CCN(C)CC3)cc21	SC27B	3.981	inhibitor, single point
CCn1cc(C(=O)O)c(=O)c2cc(F)c(N3CCN(C)CC3)cc21	CP291	19.01	inhibitor, single point
CCn1cc(C(=O)O)c(=O)c2cc(F)c(N3CCN(C)CC3)cc21	TAB109	7.08	inhibitor, single point
CCn1cc(C(=O)O)c(=O)c2cc(F)c(N3CCN(C)CC3)cc21	CP215	7.569	inhibitor, single point
CCn1cc(C(=O)O)c(=O)c2cc(F)c(N3CCN(C)CC3)cc21	AA1029	14.13	inhibitor, single point
CCn1cc(C(=O)O)c(=O)c2cc(F)c(N3CCN(C)CC3)cc21	CP250	15.85	inhibitor, single point
CCn1cc(C(=O)O)c(=O)c2cc(F)c(N3CCN(C)CC3)cc21	CP237	11.22	inhibitor, partial curve
CCn1cc(C(=O)O)c(=O)c2cc(F)c(N3CCN(C)CC3)cc21	CP211	15.1	inhibitor, partial curve, poor fit
CCn1cc(C(=O)O)c(=O)c2cc(F)c(N3CCN(C)CC3)cc21	P94_40	15.85	inhibitor, single point
CCn1cc(C(=O)O)c(=O)c2cc(F)c(N3CCN(C)CC3)cc21	ATS95	3.981	inhibitor, single point
CCn1cc(C(=O)O)c(=O)c2cc(F)c(N3CCN(C)CC3)cc21	CP265	6.31	inhibitor, single point
CCn1cc(C(=O)O)c(=O)c2cc(F)c(N3CCN(C)CC3)cc21	DFO2036	3.548	inhibitor, single point
CCn1cc(C(=O)O)c(=O)c2cc(F)c(N3CCN(C)CC3)cc21	CP203	7.569	inhibitor, partial curve, poor fit
CCn1cc(C(=O)O)c(=O)c2cc(F)c(N3CCN(C)CC3)cc21	CP191	12.59	inhibitor, single point
CCn1cc(C(=O)O)c(=O)c2cc(F)c(N3CCN(C)CC3)cc21	TAB165	12.59	inhibitor, single point
CCn1cc(C(=O)O)c(=O)c2cc(F)c(N3CCN(C)CC3)cc21	CP260	7.08	inhibitor, partial curve
CCn1cc(C(=O)O)c(=O)c2cc(F)c(N3CCN(C)CC3)cc21	ECU	3.548	inhibitor, single point
CCn1cc(C(=O)O)c(=O)c2cc(F)c(N3CCN(C)CC3)cc21	CP252	14.13	inhibitor, single point
CCn1cc(C(=O)O)c(=O)c2cc(F)c(N3CCN(C)CC3)cc21	ATS189	3.981	inhibitor, single point
CCn1cc(C(=O)O)c(=O)c2cc(F)c(N3CCN(C)CC3)cc21	P93_24	15.85	inhibitor, single point
CCn1cc(C(=O)O)c(=O)c2cc(F)c(N3CCN(C)CC3)cc21	CP185	0.8913	inhibitor, single point
CCn1cc(C(=O)O)c(=O)c2cc(F)c(N3CCN(C)CC3)cc21	C2A	15.85	inhibitor, single point
C[C@@H]1O[C@@H](O[C@H]2C[C@@H](O)[C@@]3(CO)[C@H]4[C@H](O)C[C@]5(C)[C@@H](C6=CC(=O)OC6)CC[C@]5(O)[C@H]4CC[C@@]3(O)C2)[C@@H](O)[C@H](O)[C@H]1O	W2	0.0135	inhibitor, full curve, poor fit
C[C@@H]1O[C@@H](O[C@H]2C[C@@H](O)[C@@]3(CO)[C@H]4[C@H](O)C[C@]5(C)[C@@H](C6=CC(=O)OC6)CC[C@]5(O)[C@H]4CC[C@@]3(O)C2)[C@@H](O)[C@H](O)[C@H]1O	PC26	0.0536	inhibitor, full curve
C[C@@H]1O[C@@H](O[C@H]2C[C@@H](O)[C@@]3(CO)[C@H]4[C@H](O)C[C@]5(C)[C@@H](C6=CC(=O)OC6)CC[C@]5(O)[C@H]4CC[C@@]3(O)C2)[C@@H](O)[C@H](O)[C@H]1O	CP194	0.0085	inhibitor, partial curve, poor fit
C[C@@H]1O[C@@H](O[C@H]2C[C@@H](O)[C@@]3(CO)[C@H]4[C@H](O)C[C@]5(C)[C@@H](C6=CC(=O)OC6)CC[C@]5(O)[C@H]4CC[C@@]3(O)C2)[C@@H](O)[C@H](O)[C@H]1O	PC15	0.0562	inhibitor, partial curve
C[C@@H]1O[C@@H](O[C@H]2C[C@@H](O)[C@@]3(CO)[C@H]4[C@H](O)C[C@]5(C)[C@@H](C6=CC(=O)OC6)CC[C@]5(O)[C@H]4CC[C@@]3(O)C2)[C@@H](O)[C@H](O)[C@H]1O	CP315	4.256	inhibitor, single point
COc1ccc(CN2CCN(C(c3ccc(F)cc3)c3ccc(F)cc3)CC2)c(OC)c1OC	DFO2036	10	inhibitor, single point
COc1ccc(CN2CCN(C(c3ccc(F)cc3)c3ccc(F)cc3)CC2)c(OC)c1OC	CP291	16.94	inhibitor, single point
COc1ccc(CN2CCN(C(c3ccc(F)cc3)c3ccc(F)cc3)CC2)c(OC)c1OC	CP238	10	inhibitor, single point
COc1ccc(CN2CCN(C(c3ccc(F)cc3)c3ccc(F)cc3)CC2)c(OC)c1OC	CP305	16.94	inhibitor, single point
COc1ccc(CN2CCN(C(c3ccc(F)cc3)c3ccc(F)cc3)CC2)c(OC)c1OC	CP192	16.94	inhibitor, single point
COc1ccc(CN2CCN(C(c3ccc(F)cc3)c3ccc(F)cc3)CC2)c(OC)c1OC	CP329	13.46	inhibitor, single point
COc1ccc(CN2CCN(C(c3ccc(F)cc3)c3ccc(F)cc3)CC2)c(OC)c1OC	CP215	12	inhibitor, single point
COc1ccc(CN2CCN(C(c3ccc(F)cc3)c3ccc(F)cc3)CC2)c(OC)c1OC	CP256	12.59	inhibitor, single point
COc1ccc(CN2CCN(C(c3ccc(F)cc3)c3ccc(F)cc3)CC2)c(OC)c1OC	PC15	12.59	inhibitor, single point
COc1ccc(CN2CCN(C(c3ccc(F)cc3)c3ccc(F)cc3)CC2)c(OC)c1OC	JCK	10	inhibitor, single point
COc1ccc(CN2CCN(C(c3ccc(F)cc3)c3ccc(F)cc3)CC2)c(OC)c1OC	PC49	17.78	inhibitor, single point
COc1ccc(CN2CCN(C(c3ccc(F)cc3)c3ccc(F)cc3)CC2)c(OC)c1OC	CP262	15.1	inhibitor, single point
COc1ccc(CN2CCN(C(c3ccc(F)cc3)c3ccc(F)cc3)CC2)c(OC)c1OC	FAB9	17.78	inhibitor, single point

Repeated from the top, 4 entries:

CCn1cc(C(=O)O)c(=O)c2cc(F)c(N3CCN(C)CC3)cc21 [ICS] gave potency 3.981 µM (inhibitor, full curve, poor fit).
CCn1cc(C(=O)O)c(=O)c2cc(F)c(N3CCN(C)CC3)cc21 [SC27B] gave potency 3.981 µM (inhibitor, single point).
CCn1cc(C(=O)O)c(=O)c2cc(F)c(N3CCN(C)CC3)cc21 [CP291] gave potency 19.01 µM (inhibitor, single point).
CCn1cc(C(=O)O)c(=O)c2cc(F)c(N3CCN(C)CC3)cc21 [TAB109] gave potency 7.08 µM (inhibitor, single point).

From PubChem BioAssay record AID504749 (NCATS, 2011).